These are yes or no findings as the source states them, for the method shown. In cells and extracts the contact can be indirect. Some entries that bind do so weakly or less than the wild type.

Sequences of proteins named here, by UniProt entry; tags and fusion partners are left off.
UniProt Q8WV24: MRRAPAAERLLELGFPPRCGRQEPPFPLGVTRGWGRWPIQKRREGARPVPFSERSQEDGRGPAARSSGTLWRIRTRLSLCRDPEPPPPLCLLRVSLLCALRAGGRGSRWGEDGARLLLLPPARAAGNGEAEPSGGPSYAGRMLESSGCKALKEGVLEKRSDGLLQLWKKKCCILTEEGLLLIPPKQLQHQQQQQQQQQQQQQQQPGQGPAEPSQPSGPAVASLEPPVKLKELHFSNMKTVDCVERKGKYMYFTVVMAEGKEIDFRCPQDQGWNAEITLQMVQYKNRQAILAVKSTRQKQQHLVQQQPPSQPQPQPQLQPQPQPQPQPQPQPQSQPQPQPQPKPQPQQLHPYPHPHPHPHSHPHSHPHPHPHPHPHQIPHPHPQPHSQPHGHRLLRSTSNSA

The test has as its target pleckstrin homology-like domain family A member 1 (human (endogenous in IMR-32)) (UniProt Q8WV24). The experiment in a line: co-IP; endogenous PHLDA1 precipitated with mouse anti-PHLDA1 (sc-23866) on Dynabeads Protein G from pre-cleared lysates of control or ch14.18/CHO-treated IMR-32 cells (1 mg protein); isotype IgG2a control; eluate immunoblotted for DCAF7 and AUTS2.

B1: DDB1- and CUL4-associated factor 7 (protein, UniProt P61962 1-342)
chain: MSLHGKRKEIYKYEAPWTVYAMNWSVRPDKRFRLALGSFVEEYNNKVQLVGLDEESSEFICRNTFDHPYPTTKLMWIPDTKGVYPDLLATSGDYLRVWRVGETETRLECLLNNNKNSDFCAPLTSFDWNEVDPYLLGTSSIDTTCTIWGLETGQVLGRVNLVSGHVKTQLIAHDKEVYDIAFSRAGGGRDMFASVGADGSVRMFDLRHLEHSTIIYEDPQHHPLLRLCWNKQDPNYLATMAMDGMEVVILDVRVPCTPVARLNNHRACVNGIAWAPHSSCHICTAADDHQALIWDIQQMPRAIEDPILAYTAEGEINNVQWASTQPDWIAICYNNCLEILRV
On to B1, for which the binding entry was “binds”.

B2: autism susceptibility gene 2 protein (protein, UniProt Q8WXX7 1-1259)
chain: MDGPTRGHGLRKKRRSRSQRDRERRSRGGLGAGAAGGGGAGRTRALSLASSSGSDKEDNGKPPSSAPSRPRPPRRKRRESTSAEEDIIDGFAMTSFVTFEALEKDVALKPQERVEKRQTPLTKKKREALTNGLSFHSKKSRLSHPHHYSSDRENDRNLCQHLGKRKKMPKALRQLKPGQNSCRDSDSESASGESKGFHRSSSRERLSDSSAPSSLGTGYFCDSDSDQEEKASDASSEKLFNTVIVNKDPELGVGTLPEHDSQDAGPIVPKISGLERSQEKSQDCCKEPIFEPVVLKDPCPQVAQPIPQPQTEPQLRAPSPDPDLVQRTEAPPQPPPLSTQPPQGPPEAQLQPAPQPQVQRPPRPQSPTQLLHQNLPPVQAHPSAQSLSQPLSAYNSSSLSLNSLSSSRSSTPAKTQPAPPHISHHPSASPFPLSLPNHSPLHSFTPTLQPPAHSHHPNMFAPPTALPPPPPLTSGSLQVAGHPAGSTYSEQDILRQELNTRFLASQSADRGASLGPPPYLRTEFHQHQHQHQHTHQHTHQHTFTPFPHAIPPTAIMPTPAPPMFDKYPTKVDPFYRHSLFHSYPPAVSGIPPMIPPTGPFGSLQGAFQPKTSNPIDVAARPGTVPHTLLQKDPRLTDPFRPMLRKPGKWCAMHVHIAWQIYHHQQKVKKQMQSDPHKLDFGLKPEFLSRPPGPSLFGAIHHPHDLARPSTLFSAAGAAHPTGTPFGPPPHHSNFLNPAAHLEPFNRPSTFTGLAAVGGNAFGGLGNPSVTPNSMFGHKDGPSVQNFSNPHEPWNRLHRTPPSFPTPPPWLKPGELERSASAAAHDRDRDVDKRDSSVSKDDKERESVEKRHSSHPSPAPVLPVNALGHTRSSTEQIRAHLNTEAREKDKPKERERDHSESRKDLAADEHKAKEGHLPEKDGHGHEGRAAGEEAKQLARVPSPYVRTPVVESARPNSTSSREAEPRKGEPAYENPKKSSEVKVKEERKEDHDLPPEAPQTHRASEPPPPNSSSSVHPGPLASMPMTVGVTGIHPMNSISSLDRTRMMTPFMGISPLPGGERFPYPSFHWDPIRDPLRDPYRELDIHRRDPLGRDFLLRNDPLHRLSTPRLYEADRSFRDREPHDYSHHHHHHHHPLSVDPRREHERGGHLDERERLHMLREDYEHTRLHSVHPASLDGHLPHPSLITPGLPSMHYPRISPTAGNQNGLLNKTPPTAALSAPPPLISTLGGRPVSPRRTTPLSAEIRERPPSHTLKDIEAR
Turning to B2, the binding result was “binds”.

The values are drawn from publication PMC10941682.
